The results in this text go back to the supplement of paper PMC10849652.

The chains behind the UniProt entries cited, without tags or fusion partners. Where a name states a change or a piece, a line headed by the entry shows the natural chain unless it says otherwise.
UniProt Q9BTE3: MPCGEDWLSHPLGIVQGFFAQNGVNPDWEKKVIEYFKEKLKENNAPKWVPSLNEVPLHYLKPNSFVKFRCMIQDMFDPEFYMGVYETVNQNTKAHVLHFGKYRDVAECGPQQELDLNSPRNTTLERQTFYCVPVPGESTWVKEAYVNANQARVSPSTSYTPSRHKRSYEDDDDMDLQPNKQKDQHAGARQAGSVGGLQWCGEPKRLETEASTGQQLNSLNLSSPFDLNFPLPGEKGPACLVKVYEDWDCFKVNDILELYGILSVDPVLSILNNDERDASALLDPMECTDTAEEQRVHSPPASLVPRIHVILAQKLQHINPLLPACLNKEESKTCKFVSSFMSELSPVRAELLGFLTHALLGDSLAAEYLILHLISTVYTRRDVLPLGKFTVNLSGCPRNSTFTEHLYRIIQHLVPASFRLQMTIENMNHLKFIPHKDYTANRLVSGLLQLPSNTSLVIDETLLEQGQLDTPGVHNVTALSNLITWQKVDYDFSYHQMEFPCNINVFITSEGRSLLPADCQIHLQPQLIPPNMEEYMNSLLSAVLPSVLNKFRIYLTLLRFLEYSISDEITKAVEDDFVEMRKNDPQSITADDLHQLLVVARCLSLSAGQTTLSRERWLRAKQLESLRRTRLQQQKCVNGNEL
UniProt Q14566: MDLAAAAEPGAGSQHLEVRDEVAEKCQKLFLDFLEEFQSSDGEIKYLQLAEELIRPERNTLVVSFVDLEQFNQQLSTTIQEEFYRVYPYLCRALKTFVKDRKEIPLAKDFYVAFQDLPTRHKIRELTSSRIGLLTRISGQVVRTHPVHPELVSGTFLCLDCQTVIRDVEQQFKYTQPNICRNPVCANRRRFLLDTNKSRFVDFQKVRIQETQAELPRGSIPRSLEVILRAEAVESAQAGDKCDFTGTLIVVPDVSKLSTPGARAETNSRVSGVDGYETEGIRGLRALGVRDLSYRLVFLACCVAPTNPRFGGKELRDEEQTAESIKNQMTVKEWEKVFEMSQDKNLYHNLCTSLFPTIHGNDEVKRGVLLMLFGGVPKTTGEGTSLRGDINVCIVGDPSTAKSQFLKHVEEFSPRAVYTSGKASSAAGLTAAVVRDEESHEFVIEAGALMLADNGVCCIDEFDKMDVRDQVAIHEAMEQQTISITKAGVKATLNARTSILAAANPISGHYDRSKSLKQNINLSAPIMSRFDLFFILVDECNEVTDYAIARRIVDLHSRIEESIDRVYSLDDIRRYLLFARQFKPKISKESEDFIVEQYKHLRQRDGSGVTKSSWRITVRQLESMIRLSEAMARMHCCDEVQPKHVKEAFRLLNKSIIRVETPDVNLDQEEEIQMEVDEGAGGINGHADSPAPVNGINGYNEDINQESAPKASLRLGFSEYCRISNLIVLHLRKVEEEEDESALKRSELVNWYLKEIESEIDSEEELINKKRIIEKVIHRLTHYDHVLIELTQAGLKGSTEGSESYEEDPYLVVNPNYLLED
UniProt Q5TF39: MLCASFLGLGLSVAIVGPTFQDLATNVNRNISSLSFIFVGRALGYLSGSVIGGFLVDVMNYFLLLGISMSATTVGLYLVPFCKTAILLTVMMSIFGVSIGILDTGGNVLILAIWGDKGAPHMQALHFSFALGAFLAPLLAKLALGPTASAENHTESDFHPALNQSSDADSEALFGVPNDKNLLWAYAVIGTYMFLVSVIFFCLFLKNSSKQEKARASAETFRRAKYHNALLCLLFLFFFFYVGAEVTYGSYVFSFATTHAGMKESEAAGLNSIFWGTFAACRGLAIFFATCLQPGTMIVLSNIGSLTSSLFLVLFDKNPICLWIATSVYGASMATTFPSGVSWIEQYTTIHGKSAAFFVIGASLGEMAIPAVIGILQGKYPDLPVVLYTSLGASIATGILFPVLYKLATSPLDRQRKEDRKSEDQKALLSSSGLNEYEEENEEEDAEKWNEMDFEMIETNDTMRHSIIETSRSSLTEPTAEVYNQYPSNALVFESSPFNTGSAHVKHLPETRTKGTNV
UniProt O95140: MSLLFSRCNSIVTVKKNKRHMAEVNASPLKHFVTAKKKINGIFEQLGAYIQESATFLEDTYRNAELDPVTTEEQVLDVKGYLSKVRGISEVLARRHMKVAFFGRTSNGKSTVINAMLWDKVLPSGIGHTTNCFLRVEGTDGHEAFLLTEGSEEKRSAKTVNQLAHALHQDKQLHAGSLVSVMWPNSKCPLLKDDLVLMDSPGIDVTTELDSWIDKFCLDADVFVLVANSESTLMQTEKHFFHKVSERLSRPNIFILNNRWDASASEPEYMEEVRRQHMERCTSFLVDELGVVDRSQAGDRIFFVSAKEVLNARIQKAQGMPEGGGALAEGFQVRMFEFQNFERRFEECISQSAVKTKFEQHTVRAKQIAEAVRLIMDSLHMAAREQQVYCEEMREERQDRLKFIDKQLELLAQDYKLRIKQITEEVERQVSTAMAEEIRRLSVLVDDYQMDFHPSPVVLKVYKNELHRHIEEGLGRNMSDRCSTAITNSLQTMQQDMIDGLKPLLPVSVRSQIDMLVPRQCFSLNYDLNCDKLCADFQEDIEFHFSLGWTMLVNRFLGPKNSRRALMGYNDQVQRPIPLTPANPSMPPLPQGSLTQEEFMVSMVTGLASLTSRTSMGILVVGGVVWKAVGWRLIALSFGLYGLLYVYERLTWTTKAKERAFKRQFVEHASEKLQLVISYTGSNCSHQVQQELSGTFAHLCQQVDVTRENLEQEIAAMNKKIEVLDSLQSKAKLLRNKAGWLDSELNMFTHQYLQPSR
UniProt Q86W50: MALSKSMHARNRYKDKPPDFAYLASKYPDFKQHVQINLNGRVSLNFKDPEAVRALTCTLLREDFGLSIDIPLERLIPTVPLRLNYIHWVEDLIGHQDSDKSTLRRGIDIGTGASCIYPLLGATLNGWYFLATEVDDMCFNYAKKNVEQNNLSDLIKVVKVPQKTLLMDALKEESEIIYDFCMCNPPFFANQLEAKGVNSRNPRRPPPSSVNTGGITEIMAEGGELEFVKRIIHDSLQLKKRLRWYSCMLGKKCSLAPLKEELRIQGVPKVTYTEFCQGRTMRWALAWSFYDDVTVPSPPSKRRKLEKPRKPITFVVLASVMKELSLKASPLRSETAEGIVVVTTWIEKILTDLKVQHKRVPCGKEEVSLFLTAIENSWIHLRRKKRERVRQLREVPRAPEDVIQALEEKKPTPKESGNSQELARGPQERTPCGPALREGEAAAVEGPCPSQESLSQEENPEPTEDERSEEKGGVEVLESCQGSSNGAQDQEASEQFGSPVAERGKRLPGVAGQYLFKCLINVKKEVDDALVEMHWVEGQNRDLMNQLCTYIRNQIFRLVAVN
UniProt Q06413, whole entry, looked up: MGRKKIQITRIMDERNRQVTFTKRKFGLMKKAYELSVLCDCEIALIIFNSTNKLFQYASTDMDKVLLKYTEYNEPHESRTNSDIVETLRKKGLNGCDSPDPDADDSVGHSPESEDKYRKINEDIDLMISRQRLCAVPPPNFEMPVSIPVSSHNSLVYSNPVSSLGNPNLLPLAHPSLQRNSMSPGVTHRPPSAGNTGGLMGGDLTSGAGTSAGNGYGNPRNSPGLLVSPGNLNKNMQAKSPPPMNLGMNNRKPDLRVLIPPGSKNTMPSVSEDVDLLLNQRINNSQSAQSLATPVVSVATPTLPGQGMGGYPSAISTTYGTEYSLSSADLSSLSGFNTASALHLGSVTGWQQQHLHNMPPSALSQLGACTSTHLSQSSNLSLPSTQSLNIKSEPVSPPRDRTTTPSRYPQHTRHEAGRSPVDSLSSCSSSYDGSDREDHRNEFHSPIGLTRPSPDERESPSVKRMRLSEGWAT
UniProt Q8NI22: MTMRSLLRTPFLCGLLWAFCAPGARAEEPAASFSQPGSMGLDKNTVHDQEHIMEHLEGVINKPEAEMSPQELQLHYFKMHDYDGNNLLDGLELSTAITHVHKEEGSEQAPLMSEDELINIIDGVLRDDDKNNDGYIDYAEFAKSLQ
UniProt P49736, whole entry, looked up: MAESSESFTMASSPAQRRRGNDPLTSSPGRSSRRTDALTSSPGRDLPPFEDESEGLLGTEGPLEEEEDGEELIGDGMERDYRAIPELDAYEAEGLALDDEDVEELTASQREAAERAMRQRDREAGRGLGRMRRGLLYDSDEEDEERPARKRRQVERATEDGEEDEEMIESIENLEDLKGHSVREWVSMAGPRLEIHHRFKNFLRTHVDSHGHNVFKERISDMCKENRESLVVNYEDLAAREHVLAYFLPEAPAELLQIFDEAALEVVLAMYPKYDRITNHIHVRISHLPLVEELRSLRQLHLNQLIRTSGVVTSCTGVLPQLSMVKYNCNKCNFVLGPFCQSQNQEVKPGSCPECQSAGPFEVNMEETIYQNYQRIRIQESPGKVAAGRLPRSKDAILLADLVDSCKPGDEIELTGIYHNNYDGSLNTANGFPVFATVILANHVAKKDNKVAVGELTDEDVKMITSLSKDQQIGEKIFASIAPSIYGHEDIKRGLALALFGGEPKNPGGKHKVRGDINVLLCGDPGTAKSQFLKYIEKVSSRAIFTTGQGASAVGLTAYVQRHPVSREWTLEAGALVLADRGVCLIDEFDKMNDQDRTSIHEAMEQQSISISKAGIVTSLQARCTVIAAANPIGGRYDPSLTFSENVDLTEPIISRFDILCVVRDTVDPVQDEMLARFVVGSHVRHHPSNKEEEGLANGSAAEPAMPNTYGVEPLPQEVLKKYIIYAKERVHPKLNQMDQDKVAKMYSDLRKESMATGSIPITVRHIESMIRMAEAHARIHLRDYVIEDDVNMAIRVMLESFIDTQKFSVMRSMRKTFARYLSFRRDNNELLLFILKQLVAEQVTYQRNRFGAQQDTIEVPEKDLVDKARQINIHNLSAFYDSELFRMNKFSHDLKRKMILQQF
UniProt P51608, whole entry, looked up: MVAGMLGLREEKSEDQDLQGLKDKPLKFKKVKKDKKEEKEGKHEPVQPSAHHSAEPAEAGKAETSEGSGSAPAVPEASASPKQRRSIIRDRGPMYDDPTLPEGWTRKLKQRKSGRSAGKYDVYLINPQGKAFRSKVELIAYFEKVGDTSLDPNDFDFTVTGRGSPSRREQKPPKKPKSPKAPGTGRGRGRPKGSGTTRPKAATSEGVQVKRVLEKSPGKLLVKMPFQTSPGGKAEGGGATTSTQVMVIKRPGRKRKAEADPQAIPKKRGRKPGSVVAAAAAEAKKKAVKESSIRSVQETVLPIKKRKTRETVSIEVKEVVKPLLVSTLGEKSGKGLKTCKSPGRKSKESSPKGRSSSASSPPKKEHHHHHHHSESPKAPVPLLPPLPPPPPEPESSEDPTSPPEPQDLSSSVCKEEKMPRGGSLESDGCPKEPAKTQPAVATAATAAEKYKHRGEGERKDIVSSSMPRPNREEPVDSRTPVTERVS
UniProt Q16626: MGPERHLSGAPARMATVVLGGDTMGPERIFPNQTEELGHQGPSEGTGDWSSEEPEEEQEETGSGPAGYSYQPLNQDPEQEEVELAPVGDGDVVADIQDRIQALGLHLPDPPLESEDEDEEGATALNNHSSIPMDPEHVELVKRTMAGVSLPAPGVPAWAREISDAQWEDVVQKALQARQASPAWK
UniProt Q86U44, whole entry, looked up: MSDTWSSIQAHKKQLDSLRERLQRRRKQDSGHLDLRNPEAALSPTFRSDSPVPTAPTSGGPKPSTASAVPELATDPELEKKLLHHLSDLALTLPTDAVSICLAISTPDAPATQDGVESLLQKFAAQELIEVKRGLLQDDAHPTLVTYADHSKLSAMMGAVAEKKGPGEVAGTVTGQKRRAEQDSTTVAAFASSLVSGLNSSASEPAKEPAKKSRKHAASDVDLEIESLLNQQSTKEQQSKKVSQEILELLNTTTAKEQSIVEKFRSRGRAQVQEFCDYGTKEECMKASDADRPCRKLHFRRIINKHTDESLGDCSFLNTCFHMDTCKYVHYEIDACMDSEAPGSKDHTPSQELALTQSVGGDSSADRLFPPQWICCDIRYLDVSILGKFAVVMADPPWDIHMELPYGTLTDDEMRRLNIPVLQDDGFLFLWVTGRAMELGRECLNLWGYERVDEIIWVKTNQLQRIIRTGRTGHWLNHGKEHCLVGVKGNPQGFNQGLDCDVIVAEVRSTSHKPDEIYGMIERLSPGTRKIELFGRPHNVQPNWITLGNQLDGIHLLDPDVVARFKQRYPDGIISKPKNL
UniProt Q14814: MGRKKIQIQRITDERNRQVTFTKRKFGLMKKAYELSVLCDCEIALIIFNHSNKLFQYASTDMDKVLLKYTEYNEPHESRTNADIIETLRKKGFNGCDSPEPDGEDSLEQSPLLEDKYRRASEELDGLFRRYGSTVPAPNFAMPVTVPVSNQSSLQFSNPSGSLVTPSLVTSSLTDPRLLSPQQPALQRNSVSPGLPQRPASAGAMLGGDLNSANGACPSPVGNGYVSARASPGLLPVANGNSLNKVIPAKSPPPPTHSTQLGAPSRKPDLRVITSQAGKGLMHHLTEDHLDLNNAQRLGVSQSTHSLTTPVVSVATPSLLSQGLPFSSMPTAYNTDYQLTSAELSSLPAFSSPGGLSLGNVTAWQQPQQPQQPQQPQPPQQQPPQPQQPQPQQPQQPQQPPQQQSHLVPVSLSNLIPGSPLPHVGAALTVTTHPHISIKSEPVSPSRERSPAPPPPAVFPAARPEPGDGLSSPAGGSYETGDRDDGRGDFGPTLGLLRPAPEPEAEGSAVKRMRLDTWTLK

This is one part of the list.

Compound in one assay: Cc1cn(-c2cc(NC(=O)c3ccc(C)c(Nc4nccc(-c5cccnc5)n4)c3)cc(C(F)(F)F)c2)cn1 [nilotinib]
As to the kind of experiment: log2 fold change, soluble protein after heating vs DMSO (PISA); higher = thermal stabilisation; K562 lysate, 10 uM; active = over 0.2 and 3.5 SD of the protein, either way, in both replicates (recomputed). In short, it runs like this:
(§1)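 Dounce homogenisation of K562 pellets in PBS pH 7.4 with 1 mM MgCl2 produced a crude extract, used at 1 mg/mL protein. Exposure to 10 μM compound lasted 30 min, and aliquots were then heated for 3 min across 48°C-58°C, pooled and brought to 0.5% NP-40 at 4°C. The supernatant after 21,000xg for 90 min was quantified by TMTpro 16plex LC-MS/MS with channel sums equalised. Duplicate values are given as log-two fold change in thermal stability relative to solvent controls.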
Regarding MCMBP (UniProt Q9BTE3), the log2 fold change is inactive: -0.01.
Still for that read-out and setting: the figure for MED20 (UniProt Q9H944) is inactive: 0.038.
Same read-out and setting: the figure for METTL5 (UniProt Q9NRN9) is inactive: 0.017; for MDH2 (UniProt P40926) it is inactive: -0.005; for METTL14 (UniProt Q9HCE5) it is inactive: 0.016.
As to MECR (UniProt Q9BV79), the log2 fold change was inactive: -0.085.
In the case of METAP1D (UniProt Q6UB28), the log2 fold change is inactive: 0.02.
Still for that read-out and setting: the figure for MEF2A (UniProt Q02078) is inactive: -0.041.
For the target MFSD10 (UniProt Q14728), the log2 fold change was inactive: 0.017.
For MCL1 (UniProt Q07820), the log2 fold change was inactive: 0.045.
Same read-out and setting: the result for MCM6 (UniProt Q14566) reads inactive: -0.053; that for MED7 (UniProt O43513), inactive: -0.096; that for MFSD4B (UniProt Q5TF39), inactive: 0.093.
Turning to ME2 (UniProt P23368), the log2 fold change is inactive: -0.01.
Same read-out and setting: the result for METTL2A (UniProt Q96IZ6) reads inactive: -0.012; that for MFN2 (UniProt O95140), inactive: 0.046; that for MED8 isoform 2 (UniProt Q96G25), inactive: 0.084.
In the case of MED4 (UniProt Q9NPJ6), the log2 fold change is inactive: 0.017.
In the case of METTL16 (UniProt Q86W50), the log2 fold change was inactive: 0.
Consider MEF2C isoform 5 (UniProt Q06413), for which the log2 fold change is inactive: -0.183.
Take MCUR1 (UniProt Q96AQ8): the log2 fold change was inactive: -0.05.
For METAP2 (UniProt P50579), the log2 fold change was inactive: 0.028.
On the same count and under the same terms, the figure for MBD3 (UniProt O95983) is inactive: 0.011; for MBD2 (UniProt Q9UBB5) it is inactive: 0.012.
For the target MED15 (UniProt Q96RN5), the log2 fold change is inactive: -0.05.
Same read-out and setting: the result for MCFD2 (UniProt Q8NI22) reads inactive: 0.017; that for MCM2 (UniProt P49736), inactive: -0.036.
On the same count and under the same terms, the result for MEAF6 isoform 3 (UniProt Q9HAF1) reads inactive: 0.009; that for ME3 (UniProt Q16798), inactive: -0.047.
Still for that read-out and setting: the result for MECP2 isoform 2 (UniProt P51608) reads inactive: 0.031; that for MBOAT2 (UniProt Q6ZWT7), inactive: -0.006; that for MCM4 (UniProt P33991), inactive: 0.008.
MEA1 (UniProt Q16626): the log2 fold change is inactive: -0.006.
As for MFAP1 (UniProt P55081), the log2 fold change was inactive: -0.059.
On the same count and under the same terms, the figure for MED30 (UniProt Q96HR3) is inactive: 0.008; for METTL3 (UniProt Q86U44) it is inactive: -0.013.
On the same count and under the same terms, the figure for MCRIP1 (UniProt I3L4Q0) is inactive: 0.014.
Regarding MCRIP2 (UniProt Q9BUT9), the log2 fold change is inactive: 0.056.
Same read-out and setting: the result for MEF2D (UniProt Q14814) reads inactive: 0.002; that for MESD (UniProt Q14696), inactive: 0.012.

Compound in the next assay: Cc1nc(Nc2n[nH]c3c2CN(C(=O)N[C@H](CN(C)C)c2ccccc2)C3(C)C)c2sccc2n1
The description is as above. In short, it runs like this: as §1
Consider MCMBP (UniProt Q9BTE3), for which the log2 fold change is inactive: -0.008.
Take MED20 (UniProt Q9H944): the log2 fold change is inactive: -0.022.
As to METTL5 (UniProt Q9NRN9), the log2 fold change was inactive: -0.023.
Take MDH2 (UniProt P40926): the log2 fold change is inactive: 0.007.
On the same count and under the same terms, the figure for METTL14 (UniProt Q9HCE5) is inactive: -0.039; for MECR (UniProt Q9BV79) it is inactive: 0.012; for METAP1D (UniProt Q6UB28) it is inactive: -0.055.
Turning to MEF2A (UniProt Q02078), the log2 fold change is inactive: 0.021.
The same measure, in the same setting: the figure for MFSD10 (UniProt Q14728) is inactive: -0.018; for MCL1 (UniProt Q07820) it is inactive: -0.046.
Same read-out and setting: the result for MCM6 (UniProt Q14566) reads inactive: 0.016; that for MED7 (UniProt O43513), inactive: 0.168; that for MFSD4B (UniProt Q5TF39), inactive: -0.089.
On to ME2 (UniProt P23368), for which the log2 fold change was inactive: -0.01.
On the same count and under the same terms, the result for METTL2A (UniProt Q96IZ6) reads inactive: 0.022.
For MFN2 (UniProt O95140), the log2 fold change is inactive: -0.056.
The same measure, in the same setting: the result for MED8 isoform 2 (UniProt Q96G25) reads inactive: -0.033; that for MED4 (UniProt Q9NPJ6), inactive: 0.001.
Same read-out and setting: the result for METTL16 (UniProt Q86W50) reads inactive: 0.002; that for MEF2C isoform 5 (UniProt Q06413), inactive: 0.018.
As to MCUR1 (UniProt Q96AQ8), the log2 fold change is inactive: -0.008.
For the target METAP2 (UniProt P50579), the log2 fold change was inactive: 0.028.
MBD3 (UniProt O95983): the log2 fold change was inactive: -0.007.
Same read-out and setting: the figure for MBD2 (UniProt Q9UBB5) is inactive: 0.007.
For MED15 (UniProt Q96RN5), the log2 fold change was inactive: 0.08.
With MCFD2 (UniProt Q8NI22), the log2 fold change is inactive: 0.057.
Still for that read-out and setting: the result for MCM2 (UniProt P49736) reads inactive: -0.009; that for MEAF6 isoform 3 (UniProt Q9HAF1), inactive: -0.045.
The same measure, in the same setting: the figure for ME3 (UniProt Q16798) is inactive: -0.173; for MECP2 isoform 2 (UniProt P51608) it is inactive: 0.038.
Still for that read-out and setting: the result for MBOAT2 (UniProt Q6ZWT7) reads inactive: -0.095; that for MCM4 (UniProt P33991), inactive: -0.017; that for MEA1 (UniProt Q16626), inactive: -0.007.
As for MFAP1 (UniProt P55081), the log2 fold change was inactive: 0.007.
Still for that read-out and setting: the result for MED30 (UniProt Q96HR3) reads inactive: 0.018.
Consider METTL3 (UniProt Q86U44), for which the log2 fold change was inactive: 0.022.
MCRIP1 (UniProt I3L4Q0): the log2 fold change was inactive: 0.048.
Take MCRIP2 (UniProt Q9BUT9): the log2 fold change was inactive: 0.09.
MEF2D (UniProt Q14814): the log2 fold change was inactive: 0.048.
The same measure, in the same setting: the result for MESD (UniProt Q14696) reads inactive: 0.005.
